Source: patent US5854388A, “Angiotensin IV peptides and receptor” (Washington State University Research Foundation, priority 1994, dated 1998)
pKi: −log10 of the molar value. The structures given here were assigned with low confidence; some may be wrong.

Protein sequences, listed by entry. Tags and fused reporters are not part of them. Residues count along the entry.
UniProt F1N1Q8, 1-1022: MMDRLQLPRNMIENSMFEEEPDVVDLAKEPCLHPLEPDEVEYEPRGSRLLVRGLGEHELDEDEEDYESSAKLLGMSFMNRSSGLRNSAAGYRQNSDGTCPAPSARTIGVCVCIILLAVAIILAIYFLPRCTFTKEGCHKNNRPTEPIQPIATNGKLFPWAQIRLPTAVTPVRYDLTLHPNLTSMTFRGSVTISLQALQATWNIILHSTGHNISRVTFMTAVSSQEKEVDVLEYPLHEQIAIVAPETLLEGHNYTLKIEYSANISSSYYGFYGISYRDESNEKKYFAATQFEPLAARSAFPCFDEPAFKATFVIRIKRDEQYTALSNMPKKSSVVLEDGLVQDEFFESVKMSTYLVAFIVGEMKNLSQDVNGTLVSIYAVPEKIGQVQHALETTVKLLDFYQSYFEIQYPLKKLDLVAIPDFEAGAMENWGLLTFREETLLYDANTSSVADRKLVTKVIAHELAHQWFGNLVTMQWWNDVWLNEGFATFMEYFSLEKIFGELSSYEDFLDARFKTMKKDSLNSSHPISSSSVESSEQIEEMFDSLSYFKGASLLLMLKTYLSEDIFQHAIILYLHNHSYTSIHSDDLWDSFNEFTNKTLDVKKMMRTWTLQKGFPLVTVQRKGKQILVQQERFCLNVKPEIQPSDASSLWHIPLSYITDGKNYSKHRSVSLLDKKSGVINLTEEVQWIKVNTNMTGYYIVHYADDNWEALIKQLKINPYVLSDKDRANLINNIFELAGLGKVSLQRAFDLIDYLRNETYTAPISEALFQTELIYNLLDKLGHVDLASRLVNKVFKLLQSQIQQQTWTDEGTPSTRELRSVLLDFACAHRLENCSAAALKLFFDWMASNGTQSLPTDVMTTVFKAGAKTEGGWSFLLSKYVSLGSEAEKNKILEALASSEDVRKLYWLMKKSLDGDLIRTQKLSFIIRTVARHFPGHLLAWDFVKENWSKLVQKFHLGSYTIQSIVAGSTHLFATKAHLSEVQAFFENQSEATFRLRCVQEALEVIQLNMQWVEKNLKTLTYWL

Tests used:
[1] = molecular target: AT4 receptor (Bos taurus, UniProt F1N1Q8); test: 125I-AIV binding and competition, solubilized bovine adrenal cortical receptor
[2] = test system: rat kidney; test: Renal cortical blood flow (laser doppler) and arterial pressure after infusion into the renal artery; format: in vivo

## CC[C@H](C)[C@H](NC(=O)[C@@H](N)Cc1ccc(O)cc1)C(=O)N[C@@H](Cc1cnc[nH]1)C(=O)N1CCC[C@H]1C(=O)N[C@@H](Cc1ccccc1)C(=O)O [AII(4-8), YIHPF]
[1]
  binding to solubilized AT4 receptor (in words): inactive
[1]; competition of 125I-AIV binding
  pKi: < 6.00
[2]
  effect on renal blood flow (in words): no effect on renal blood flow
